The values that follow come from publication PMC4895335.

For data set [1], the target named is T1, Ms4022 (TetR family regulator) (Mycobacterium smegmatis mc2 155) (UniProt A0QZH0).
T1 sequence (looked up, limits assumed): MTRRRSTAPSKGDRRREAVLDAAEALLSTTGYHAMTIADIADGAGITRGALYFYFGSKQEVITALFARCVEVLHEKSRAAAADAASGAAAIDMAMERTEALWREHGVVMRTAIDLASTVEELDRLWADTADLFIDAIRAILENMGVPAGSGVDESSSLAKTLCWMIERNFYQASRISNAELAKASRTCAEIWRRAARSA
In words: EMSA. As to conditions: EMSA: 50 mM Tris-HCl pH 7.5, 10 mM MgCl2, 50 mM NaCl, 4 C 30 min, 5% native PAGE in 0.5x TBE at room temperature, recombinant protein, protein details: N-terminal His (pET28a). (In general: Mobility shift assays separate free from complexed probe on a gel.)

Data set [2] has as its target T1, Ms4022 (TetR family regulator) (Mycobacterium smegmatis mc2 155). In words: competition with a labelled probe. As to conditions: unlabelled competitor vs labelled Ms4022p; EMSA: 50 mM Tris-HCl pH 7.5, 10 mM MgCl2, 50 mM NaCl, 4 C 30 min, 5% native PAGE in 0.5x TBE at room temperature; recombinant protein; protein details: N-terminal His (pET28a); probe letters rebuilt from the primers and the genome.

Data set [3] shares this target. Description: DNase I footprinting. As to conditions: footprinting: binding as in EMSA, DNase I at 37 C; recombinant protein; protein details: N-terminal His (pET28a); probe letters rebuilt from the primers and the genome.

For at least one entry, the source does not settle the construct or the ends of the probe. For some of these results: At least one verdict was read from the data and is not stated in words by the source. Tags and fusion partners may be left off the protein sequences shown.

As for “CCGCCATCTCAATAAGCACAGTGTCGAAAAAAATAAGCA (double strand) [F1]”, the binding result in data set [1] is “binds”.
Consider “GACGGAATTCACTTGACCCGACGGAGATCGACCGCGCCGAGCAAAGGCGACCGGCGACGCGAAGCGGTGTTGGACGCGGCCGAGGCTCTCCTGAGCACGACGGGTTATCACGCGATGACGATCGCGGATATTGCCGACGGCGCGGGCATCACCCGCGGTGCGCTCTACTTCTACTTCGGCTCGAAGCAGGAGGTCATCACAGCTCTGTTTGCGCGCTGCGTCGAAGTGCTGCACGAGAAGTCCCGAGCAGCGGCCGCTGACGCCGCCAGCGGGGCCGCCGCCATCGATATGGCGATGGAGCGCACGGAGGCGCTGTGGCGCGAGCACGGCGTGGTGATGCGCACGGCGATCGATCTCGCTTCCACCGTCGAGGAGCTCGACAGGCTGTGGGCCGATACCGCCGATCTGTTCATCGACGCCATCAGGGCGATCTTGGAGAACATGGGAGTGCCGGCAGGTTCAGGCGTGGACGAATCCTCGTCGCTCGCCAAAACGTTGTGCTGGATGATCGAACGGAACTTCTATCAGGCCTCACGGATTTCGAACGCAGAACTGGCGAAGGCGAGTCGGACCTGTGCCGAGATCTGGCGGCGGGCTGCGCGCAGCGCATGATCTAGAATAT (double strand) [Ms4022p]”, for which the binding result in data set [1] (probe letters rebuilt from the primers and the genome) is on record as “binds”; in data set [2], “binds”; in data set [3], “binds”.
